Test results: PMC6852550
No constants are given. Whether binding was seen depends on the method and setting. Binding seen in cells or lysates may run through a third protein. A yes stands for co-enrichment or nearness to the bait. Other partners may have been found. No binding means not detected with the bait. For part of these data: Tags and fused reporters may be left off the sequences shown. Values belong to the molecule of their own block, whether it stands above or below them.

The chains behind the UniProt entries cited, without tags or fusion partners. Where a name states a change or a piece, a line headed by the entry shows the natural chain unless it says otherwise.
UniProt Q8W5S1: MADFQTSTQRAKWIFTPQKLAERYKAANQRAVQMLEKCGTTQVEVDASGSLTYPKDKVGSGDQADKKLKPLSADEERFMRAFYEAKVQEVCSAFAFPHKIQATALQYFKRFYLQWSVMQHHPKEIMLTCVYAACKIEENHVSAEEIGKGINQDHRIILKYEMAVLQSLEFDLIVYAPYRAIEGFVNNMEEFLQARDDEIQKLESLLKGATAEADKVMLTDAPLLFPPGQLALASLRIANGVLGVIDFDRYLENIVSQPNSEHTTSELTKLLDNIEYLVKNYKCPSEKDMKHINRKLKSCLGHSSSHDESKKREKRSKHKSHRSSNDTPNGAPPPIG
UniProt Q3ECP0: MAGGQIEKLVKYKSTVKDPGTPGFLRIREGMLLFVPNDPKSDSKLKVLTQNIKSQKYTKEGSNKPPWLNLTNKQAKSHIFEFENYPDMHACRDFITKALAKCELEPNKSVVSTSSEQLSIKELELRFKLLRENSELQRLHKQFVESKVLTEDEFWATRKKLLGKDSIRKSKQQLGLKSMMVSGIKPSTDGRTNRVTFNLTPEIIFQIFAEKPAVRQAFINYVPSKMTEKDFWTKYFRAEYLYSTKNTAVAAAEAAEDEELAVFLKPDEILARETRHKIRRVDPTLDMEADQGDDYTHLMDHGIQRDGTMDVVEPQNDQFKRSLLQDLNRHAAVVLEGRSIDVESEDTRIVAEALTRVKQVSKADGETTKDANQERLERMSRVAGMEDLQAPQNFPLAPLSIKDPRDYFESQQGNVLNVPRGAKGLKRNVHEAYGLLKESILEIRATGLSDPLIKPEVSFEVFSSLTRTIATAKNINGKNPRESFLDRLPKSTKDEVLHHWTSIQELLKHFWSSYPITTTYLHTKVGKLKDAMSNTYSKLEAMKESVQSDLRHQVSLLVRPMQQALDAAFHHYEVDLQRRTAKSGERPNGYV

Experiments:
[1] = molecular target: T1, CDKD;2:GFP–PIPL (CYCLIN-… KINASE D;2 with C-terminal GFP and PIPL tag) (Arabidopsis thaliana) (UniProt Q9C9M7); experiment: affinity purification with mass spectrometry; GFP-Trap agarose on 20 mg protein extract of rosette plants expressing CDKD;2-GFP-PIPL, three biological replicates, controls wild type and YFP-HA plants; washed with 50 mM Tris-HCl pH 7.5, 300 mM NaCl; eluted with 0.1% TFA; LC-MS/MS
T1 sequence: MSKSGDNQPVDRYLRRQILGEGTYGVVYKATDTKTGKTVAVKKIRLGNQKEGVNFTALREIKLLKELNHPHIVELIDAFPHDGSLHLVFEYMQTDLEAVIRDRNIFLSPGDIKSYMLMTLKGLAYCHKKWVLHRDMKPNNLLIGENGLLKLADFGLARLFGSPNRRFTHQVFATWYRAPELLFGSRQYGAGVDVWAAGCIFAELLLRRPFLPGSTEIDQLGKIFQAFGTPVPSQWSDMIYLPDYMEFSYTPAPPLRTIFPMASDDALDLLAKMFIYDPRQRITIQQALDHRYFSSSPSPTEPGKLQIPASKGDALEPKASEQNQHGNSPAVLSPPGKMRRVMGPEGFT

[2] = molecular target: CYCH:mCherry (CYCLIN H with C-terminal mCherry) (Arabidopsis thaliana) (UniProt Q8W5S1); experiment: affinity purification with mass spectrometry; RFP-Trap agarose on 20 mg protein extract of rosette plants expressing CYCH-mCherry or HISTONE H3.1:mCherry (each the control of the other) and wild type, three biological replicates; washed with 50 mM Tris-HCl pH 7.5, 300 mM NaCl; on-bead trypsin digestion; LC-MS/MS

binding [1]: binds
Molecule: CYCLIN H (CYCH), endogenous (from UniProt Q8W5S1)

binding [1]: binds
Molecule: MAT1 (cyclin-dependent kinase-activating kinase assembly factor-related)

binding [1]: binds
binding [2]: binds
Molecule: p62 (GTF2H1-2) TFIIH subunit (from UniProt Q3ECP0)

binding [1]: binds
binding [2]: no binding
B1: CDKF;1, endogenous (enzyme, UniProt O80345 1-479)
chain: MDKQPATSWSIHTRPEIIAKYEIFERVGSGAYADVYRARRLSDGLIVALKEIFDYQSAFREIDALTILNGSPNVVVMHEYFWREEENAVLVLEFLRSDLAAVIRDGKRKKKVEGGDGFSVGEIKRWMIQILTGVDACHRNLIVHRDLKPGNMLISDDGVLKLADFGQARILMEHDIVASDENQQAYKLEDKDGETSEPPEVIPDYENSPRQGSDGQEREAMSKDEYFRQVEELKAKQVVRDDTDKDSNVHDGDISCLATCTVSEMDDDLGRNSFSYDADEAVDDTQGLMTSCVGTRWFRPPELLYGSTMYGLEVDLWSLGCVFAELLSLEPLFPGISDIDQISRVTNVLGNLNEEVWPGCVDLPDYKSISFAKVESPLGIEGCLPNHSGDVISLLKKLICYDPASRATTMEMLNDKYLSEEPLPVPVSELYVPPTMSGPDEDSPRKWNDYREMDSDSDFDGFGPMNVKPTSSGFTIEFP

binding [1]: binds
binding [2]: binds
B2: p34 (GTF2H3/TFB4) TFIIH subunit (protein, UniProt Q8LF41 1-301)
chain: MPAIASKQYSDDVSLLVLLLDTNPLFWSTTSITFSQFLSHVLAFLNAVLGLNQLNQVVVIATGYSSCDYIYDSSLTSNHGNFESNGTGMPAIFGSLLKKLEEFVTKDEELSKEEVSEDRIPSCLLSGSLSMALCYIQRVFRSGHLHPQPRILCLQGSPDGPEQYVAVMNSIFSAQRLMVPIDSCYIGVQNSAFLQQASYITGGVHHTPKQLDGLFQYLTTIFATDLHSRGFVQLPKPIGVDFRASCFCHKKTIDMGYICSVCLSIFCEHHKKCSTCGSVFGQSKLDDASSASDKKRKAPST

binding [1]: binds
binding [2]: binds
B3: p52 (GTF2H4/TFB2) TFIIH subunit (protein, UniProt Q680U9 1-452)
chain: MPQVKIIAKNFMDMVASLPAIKLDKLYNNVFICEAILRSLPPLAKKYVLQMLYIDVPVPATMMEEWVLADGTSKHRVAIDRLIQLRIFSEISDRKRGTSYSLNPTFQNNLQKHIISGGVLPREPMNSDNAIKLPSLQELETYALKQWECFLLQLINSGQGEKLTGISSSMMKIFQRGLLSQRDKDGPRLTESGFQFLLMDTNAQLWYIIREYILNAEERDVDPADLISFLLELSFHVTGQAYNLNTLTEVQNNTLKDLADLGLVKLQQGRKDSWFIPTKLATNLSVSLADSSARKEGFVVMETNFRMYAYSTSKLQCEILRLFARIEYQLPNLIACAITKESLYNAFDNGITSDQIITFLQQNSHPRCADRVPSIPENVTDQIRLWETDLQRIEMTQAHFYDEFPSKDVFEAACDFAREWRGLLWEDSKRMRLVVKSEVHNQMREFLHTQSR

binding [2]: binds
B4: CDKD;2, endogenous (enzyme, UniProt Q9C9M7 1-348)
chain: T1 sequence

binding [1]: no binding
binding [2]: no binding
B5: XPB1 (3' to 5' helicase XPB subunit of TFIIH) (enzyme, UniProt Q38861 1-767)
chain: MGNGERGRPNKKMKYGGKDDQKMKNIQNAEDYYDDADEDSRDGEGEEKKRDFTKLELKPDHGNRPLWACADGRIFLETFSPLYKQAYDFLIAIAEPVCRPESMHEYNLTPHSLYAAVSVGLETETIISVLNKLSKTKLPKEMIEFIHASTANYGKVKLVLKKNRYFIESPFPEVLKRLLSDDVINRARFSSEPYYGGDGFSVGRTCGELEAGPGELLNEAEFAAAAEEKETHSFEIDPAQVENVKQRCLPNALNYPMLEEYDFRNDNVNPDLDMELKPHAQPRPYQEKSLSKMFGNGRARSGIIVLPCGAGKSLVGVSAAARIKKSCLCLATNAVSVDQWAFQFKLWSTIRDDQICRFTSDSKERFRGNAGVVVTTYNMVAFGGKRSEESEKIIEEMRNREWGLLLMDEVHVVPAHMFRKVISITKSHCKLGLTATLVREDERITDLNFLIGPKLYEANWLDLVKGGFIANVQCAEVWCPMTKEFFAEYLKKENSKKKQALYVMNPNKFRACEFLIRFHEQQRGDKIIVFADNLFALTEYAMKLRKPMIYGATSHIERTKILEAFKTSKDVNTVFLSKVGDNSIDIPEANVIIQISSHAGSRRQEAQRLGRILRAKGKLEDRMAGGKEEYNAFFYSLVSTDTQEMYYSTKRQQFLIDQGYSFKVITSLPPPDAGSSLSYHSQEEQLSLLGKVMNAGDDLVGLEQLEEDTDGMALQKARRSMGSMSVMSGSKGMVYMEYNSGRHKSGQQFKKPKDPTKRHNLFKKRYV

binding [1]: binds
B6: XPD (5' to 3' helicase XERODERMA PIGMENTOSUM GROUP D) (enzyme, UniProt Q8W4M7 1-758)
chain: MIFKIEDVTVYFPYDNIYPEQYEYMVELKRALDAKGHCLLEMPTGTGKTIALLSLITSYRLSRPDSPIKLVYCTRTVHEMEKTLGELKLLHDYQVRHLGTQAKILALGLSSRKNLCVNTKVLAAENRDSVDAACRKRTASWVRALSTENPNVELCDFFENYEKAAENALLPPGVYTLEDLRAFGKNRGWCPYFLARHMIQFANVIVYSYQYLLDPKVAGFISKELQKESVVVFDEAHNIDNVCIEALSVSVRRVTLEGANRNLNKIRQEIDRFKATDAGRLRAEYNRLVEGLALRGDLSGGDQWLANPALPHDILKEAVPGNIRRAEHFVHVLRRLLQYLGVRLDTENVEKESPVSFVSSLNSQAGIEQKTLKFCYDRLQSLMLTLEITDTDEFLPIQTVCDFATLVGTYARGFSIIIEPYDERMPHIPDPILQLSCHDASLAIKPVFDRFQSVVITSGTLSPIDLYPRLLNFTPVVSRSFKMSMTRDCICPMVLTRGSDQLPVSTKFDMRSDPGVVRNYGKLLVEMVSIVPDGVVCFFVSYSYMDGIIATWNETGILKEIMQQKLVFIETQDVVETTLALDNYRRACDCGRGAVFFSVARGKVAEGIDFDRHYGRLVVMYGVPFQYTLSKILRARLEYLHDTFQIKEGDFLTFDALRQAAQCVGRVIRSKADYGMMIFADKRYSRHDKRSKLPGWILSHLRDAHLNLSTDMAIHIAREFLRKMAQPYDKAGTMGRKTLLTQEDLEKMAETGVQDMAY

binding [1]: no binding
binding [2]: no binding
B7: XPB2 (3' to 5' helicase XPB subunit of TFIIH) (enzyme, UniProt Q9FUG4 1-766)
chain: MGNDERKRPTKKMKYGGKDDQKMKNIQNVEDYYDDADEDSRDGEGEEKRRDFTDLELKPDHGNRPLWACADGKIFLETFSPLYKQAYDFLIAIAEPVCRPESMHEYNLTPHSLYAAVSVGLETETIISVLNKLSKTKLPGEIIDFIHASTANYGKVKLVLKKNRYFIESPFPEVLKRLLSDDVINRARFTSEPYYGGDGFTIGKTSGELEAGPGELLNEAELAAAAEEKETHSFEIDPALVENVKQRCLPNALNYPMLEEYDFRNDNVNPDLDMELKPHAQPRPYQEKSLSKMFGNGRARSGIIVLPCGAGKSLVGVSAAARIKKSCLCLATNAVSVDQWAYQFKLWSTIKDDQICRFTSDSKERFRGNAGVVVTTYNMIAFGGKRSEEAEKIIEEMRNREWGLLLMDEVHVVPAHMFRKVISITKSHCKLGLTATLVREDEKITDLNFLIGPKLYEANWLDLVKGGFIANVQCAEVWCPMTKEFFAEYLKKENSKKKQALYVMNPNKFRACEFLIRFHEQQRGDKIIVFADNLFALTEYAMKLRKPMIYGATSHIERTKILEAFKTSKTVNTVFLSKVGDNSIDIPEANVIIQISSHAGSRRQEAQRLGRILRAKGKLEDRMAGGKEEYNAFFYSLVSTDTQEMYYSTKRQQFLIDQGYSFKVITSLPPPDAGSSLGYHSQEEQLSLLGKVLNAGDDMVGLEQLEEDTDGKALKTRRSMGSMSAMSGANGRVYMEYNSGRQKSGNQSKKPKDPTKRHNIFKKRYV

binding [1]: binds
binding [2]: binds
B8: p44 (GTF2H2/TF2H5/TTDA) TFIIH subunit (protein, UniProt Q9ZVN9 1-421)
chain: MSNQRKRSNDEREEEDDEDAEGIGEWERAYVDDRSWEELQEDESGLLRPIDNSAIYHAQYRRRLRMLSAAAAGTRIQKGLIRYLYIVIDFSRAAAEMDFRPSRMAIMAKHVEAFIREFFDQNPLSQIGLVSIKNGVAHTLTDLGGSPETHIKALMGKLEALGDSSLQNALELVHEHLNQVPSYGHREVLILYSALCTCDPGDIMETIQKCKKSKLRCSVIGLSAEMFICKHLCQETGGLYSVAVDEVHLKDLLLEHAPPPPAIAEFAIANLIKMGFPQRAAEGSMAICSCHKEVKIGAGYMCPRCKARVCDLPTECTICGLTLVSSPHLARSYHHLFPIAPFDEVPALSSLNDNRRKLGKSCFGCQQSLIGAGNKPVPCVTCRKCKHYFCLDCDIYIHESLHNCPGCESIHRPKSVSLMEE
